The assay deals with recombinant 41-BB (UniProt Q07011). The assay can be described thus: flow cytometry; recombinant 41-BB on erythroid cells displaying 41-BB-L.

Protein sequences, listed by entry. Tags and fused reporters are not part of them. Residues count along the entry.
UniProt Q07011, residues 24-186: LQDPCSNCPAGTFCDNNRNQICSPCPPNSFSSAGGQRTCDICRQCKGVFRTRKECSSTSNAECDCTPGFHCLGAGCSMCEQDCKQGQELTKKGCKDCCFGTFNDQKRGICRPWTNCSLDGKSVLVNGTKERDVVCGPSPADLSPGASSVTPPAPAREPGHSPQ
UniProt P41273, residues 50-254: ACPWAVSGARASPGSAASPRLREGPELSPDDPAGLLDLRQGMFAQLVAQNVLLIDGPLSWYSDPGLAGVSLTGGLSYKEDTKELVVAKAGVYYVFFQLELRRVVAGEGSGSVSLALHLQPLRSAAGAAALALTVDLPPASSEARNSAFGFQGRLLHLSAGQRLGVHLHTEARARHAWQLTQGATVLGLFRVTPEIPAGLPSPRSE

These are yes or no findings as the source states them, for the method shown. Some entries that bind do so weakly or less than the wild type.

For “41-BB-L expressed on enucleated erythroid cells (from UniProt P41273 50-254) (ligand)”, the binding entry was “binds”.

For the origin of these results see patent US20200172868A1.
